Measurements from PMC5709663.
These are yes or no findings as the source states them, for the method shown. In cells and extracts the contact can be indirect. Some results given as binding are weak or reduced against the parent protein; the word gives no strength.

Amino acid sequences for entries named in this document (tags omitted).
UniProt P03372: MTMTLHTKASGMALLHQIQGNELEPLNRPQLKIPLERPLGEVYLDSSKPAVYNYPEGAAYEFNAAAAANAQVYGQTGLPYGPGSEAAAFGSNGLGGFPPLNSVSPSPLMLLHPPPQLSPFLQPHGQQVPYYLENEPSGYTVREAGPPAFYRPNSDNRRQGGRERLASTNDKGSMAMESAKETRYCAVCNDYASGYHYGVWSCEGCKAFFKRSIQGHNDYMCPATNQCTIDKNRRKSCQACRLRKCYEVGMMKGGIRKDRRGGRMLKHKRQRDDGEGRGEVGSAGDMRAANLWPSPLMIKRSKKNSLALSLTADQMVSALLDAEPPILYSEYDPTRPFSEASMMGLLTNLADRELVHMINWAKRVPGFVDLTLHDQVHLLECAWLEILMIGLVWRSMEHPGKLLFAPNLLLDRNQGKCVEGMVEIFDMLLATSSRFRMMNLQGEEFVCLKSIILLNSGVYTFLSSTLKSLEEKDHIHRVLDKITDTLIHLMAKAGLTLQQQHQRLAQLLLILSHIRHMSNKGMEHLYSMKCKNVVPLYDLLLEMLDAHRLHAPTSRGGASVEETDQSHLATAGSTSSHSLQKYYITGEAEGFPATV

T1: TFIIB-related factor 1 (Brf1) (human (endogenous in MCF-7)) (UniProt Q92994)
T1 sequence: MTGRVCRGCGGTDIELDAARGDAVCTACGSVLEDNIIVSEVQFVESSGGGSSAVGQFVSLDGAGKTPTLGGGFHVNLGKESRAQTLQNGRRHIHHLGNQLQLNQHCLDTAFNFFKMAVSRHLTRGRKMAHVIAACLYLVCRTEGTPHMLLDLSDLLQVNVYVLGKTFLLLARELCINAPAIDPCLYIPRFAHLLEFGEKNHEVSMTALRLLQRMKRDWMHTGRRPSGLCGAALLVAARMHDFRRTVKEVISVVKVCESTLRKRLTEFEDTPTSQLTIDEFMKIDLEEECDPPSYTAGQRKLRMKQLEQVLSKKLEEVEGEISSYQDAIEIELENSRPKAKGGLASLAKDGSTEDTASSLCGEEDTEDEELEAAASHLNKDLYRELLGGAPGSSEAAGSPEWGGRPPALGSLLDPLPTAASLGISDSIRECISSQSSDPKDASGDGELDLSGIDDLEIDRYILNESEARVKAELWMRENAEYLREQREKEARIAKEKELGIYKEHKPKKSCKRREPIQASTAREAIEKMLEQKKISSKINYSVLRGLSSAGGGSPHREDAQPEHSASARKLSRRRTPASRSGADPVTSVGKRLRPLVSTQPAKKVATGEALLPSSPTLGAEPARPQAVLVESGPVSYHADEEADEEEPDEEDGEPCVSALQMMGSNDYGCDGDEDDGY


Legend:
[1] = molecular target: T1, TFIIB-related factor 1 (Brf1) (human (endogenous in MCF-7)); test: co-IP; endogenous proteins; lysates of MCF-7 cells treated with ethanol; immunoprecipitation with Brf1 or ERα antibody, detection by Western blot
[2] = molecular target: estrogen receptor alpha (ERα) (human (endogenous in MCF-7)) (UniProt P03372); test: as above

| binding [1] | binding [2] | Molecule |
| --- | --- | --- |
| binds | – | estrogen receptor alpha (ERα) (from UniProt P03372 1-595) |
| – | binds | TFIIB-related factor 1 (Brf1) (protein, UniProt Q92994 1-677) MTGRVCRGCGGTDIELDAARGDAVCTACGSVLEDNIIVSEVQFVESSGGGSSAVGQFVSLDGAGKTPTLGGGFHVNLGKESRAQTLQNGRRHIHHLGNQLQLNQHCLDTAFNFFKMAVSRHLTRGRKMAHVIAACLYLVCRTEGTPHMLLDLSDLLQVNVYVLGKTFLLLARELCINAPAIDPCLYIPRFAHLLEFGEKNHEVSMTALRLLQRMKRDWMHTGRRPSGLCGAALLVAARMHDFRRTVKEVISVVKVCESTLRKRLTEFEDTPTSQLTIDEFMKIDLEEECDPPSYTAGQRKLRMKQLEQVLSKKLEEVEGEISSYQDAIEIELENSRPKAKGGLASLAKDGSTEDTASSLCGEEDTEDEELEAAASHLNKDLYRELLGGAPGSSEAAGSPEWGGRPPALGSLLDPLPTAASLGISDSIRECISSQSSDPKDASGDGELDLSGIDDLEIDRYILNESEARVKAELWMRENAEYLREQREKEARIAKEKELGIYKEHKPKKSCKRREPIQASTAREAIEKMLEQKKISSKINYSVLRGLSSAGGGSPHREDAQPEHSASARKLSRRRTPASRSGADPVTSVGKRLRPLVSTQPAKKVATGEALLPSSPTLGAEPARPQAVLVESGPVSYHADEEADEEEPDEEDGEPCVSALQMMGSNDYGCDGDEDDGY |
